Measured values as given in patent US8956869B2, “Peptide inhibiting differentiation of hematopoietic stem cells or hematopoietic precursor cells and use of same” (Kyushu University, National University Corporation, priority 2009, dated 2015).
At least one peptide structure holds a part that was inferred or is arguable (an end, a ring closure or a residue). Where a SMILES comes first, the peptide text is derived from it.

Chains of the proteins cited; added tags and fusions are not shown.
UniProt P07951, whole entry: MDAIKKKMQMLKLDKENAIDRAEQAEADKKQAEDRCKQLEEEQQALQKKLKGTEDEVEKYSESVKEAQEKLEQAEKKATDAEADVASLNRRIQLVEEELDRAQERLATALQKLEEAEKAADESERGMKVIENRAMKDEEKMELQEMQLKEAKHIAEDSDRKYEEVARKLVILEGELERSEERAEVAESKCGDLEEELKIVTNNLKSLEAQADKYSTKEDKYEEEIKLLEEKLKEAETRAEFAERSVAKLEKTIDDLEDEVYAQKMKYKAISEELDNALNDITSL
UniProt P60468, whole entry: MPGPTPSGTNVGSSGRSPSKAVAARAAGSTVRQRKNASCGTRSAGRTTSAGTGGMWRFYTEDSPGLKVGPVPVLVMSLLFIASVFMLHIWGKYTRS
UniProt P16989, whole entry: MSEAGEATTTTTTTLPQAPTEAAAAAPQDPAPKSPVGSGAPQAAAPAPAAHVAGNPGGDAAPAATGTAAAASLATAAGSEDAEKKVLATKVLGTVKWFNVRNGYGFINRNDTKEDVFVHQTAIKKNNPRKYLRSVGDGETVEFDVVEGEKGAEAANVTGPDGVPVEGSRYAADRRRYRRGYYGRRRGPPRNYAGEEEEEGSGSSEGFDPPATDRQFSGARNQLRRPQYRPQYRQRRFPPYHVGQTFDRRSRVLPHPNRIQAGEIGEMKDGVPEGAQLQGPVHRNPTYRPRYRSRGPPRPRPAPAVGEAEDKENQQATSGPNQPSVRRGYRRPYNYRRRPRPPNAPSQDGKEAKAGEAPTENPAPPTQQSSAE
UniProt A8MWD9, whole entry: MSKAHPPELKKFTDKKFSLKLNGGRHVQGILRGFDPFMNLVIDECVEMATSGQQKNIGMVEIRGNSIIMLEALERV

Experiments:
p53 = assay: Phospho-Kinase Array, phosphorylation of p53; format: cell-based; conditions: human cord blood CD34(+) cells, KS-13-containing medium, 2 days
Ly-5.1 mice [1] = assay: Transplantation of hematopoietic stem cells amplified in vitro with KS-13, bone marrow reconstruction potential; format: in vivo, mouse; conditions: 5 months after transplantation
Akt = assay: Phospho-Kinase Array, phosphorylation of Akt; format: cell-based; conditions: human cord blood CD34(+) cells, KS-13-containing medium, 2 days
[2] = tested on: human cord blood CD34(+) hematopoietic stem cell population; assay: Liquid culture of human cord blood CD34(+) hematopoietic stem cell population, cell counts; format: cell-based; conditions: 11 days
[3] = tested on: mouse fetal liver hematopoietic stem cells (CD45(+)c-Kit(+)Sca-1 (+)); assay: Hematopoietic colony-forming cell assay; format: cell-based
Experimental: KS-13 (10 μg/mL or 30 μg/mL) was added to a semisolid medium (Methocult M3434 produced by STEMCELL Technologies) containing cell stimulatory factors (50 ng/mL of rm SCF, 10 ng/mL of rm IL-3, 10 ng/mL of rh IL-6, and 3 U/mL of rh EPO) (rm: recombinant form; rh: recombinant human form), and mouse fetal liver hematopoietic stem cells (CD45(+)c-Kit(+)Sca-1 (+)) (1,000 cells/dish) were cultured. Hematopoietic colony-forming cell assay was performed to evaluate the hematopoietic potential of the cells. Further, for comparison, hematopoietic colony-forming cell assay was performed in a similar manner using a KS-13-free liquid medium (none), and the hematopoietic potential of the cells was evaluated.
Myristoylated KS-13 (30 μg/mL) in which the N-terminal of KS-13 (SEQ ID NO: 1) is myristoylated and control peptide (NQVSIGCPCDGKK: SEQ ID NO: 22) (30 μg/mL) were added to a semisolid medium (Methocult M3434 produced by STEMCELL Technologies) containing cell stimulatory factors (50 ng/mL of rm SCF, 10 ng/mL of rm IL-3, 10 ng/mL of rh IL-6, and 3 U/mL of rh EPO) (rm: recombinant form; rh: recombinant human form) to culture mouse fetal liver hematopoietic stem cells (CD45(+)c— Kit(+)Sca-1(+)) (1,000 cells/dish) therein. Then, hematopoietic colony-forming cell assay was performed to evaluate the hematopoietic potential of the cells.

[4] = tested on: CD324(−)Flk-1(+)c-Kit(+) cells; assay: Semisolid culture of induced cells, HPP-CFC formation; format: cell-based, mouse; conditions: cells from day 4 SCF/KS-13 culture, semisolid medium, a month
[5] = tested on: human cord blood CD34(+) cells; assay: Colony-forming cell assay after 11 days of liquid culture (number of hematopoietic progenitor cells); format: cell-based
mouse bone marrow cells = assay: Colony-forming fibroblasts (CFU-F) assay; format: cell-based
[6] = biological target: T1, proteins that bind to KS-13 (Homo sapiens, UniProt P07951); assay: Analysis of KS-13-binding protein in human by MudPIT; conditions: glycine extraction, biotin-labeled KS-13, human cord blood CD34(+) cells
T1 construct: endogenous in cells; host or cells: human cord blood CD34(+) cells

[7] = biological target: T2, proteins that bind to KS-13 (Homo sapiens, UniProt P60468); assay: as above; conditions: urea extraction, biotin-labeled KS-13, human cord blood CD34(+) cells
T2 construct: endogenous in cells; host or cells: human cord blood CD34(+) cells

[8] = biological target: T3, proteins that bind to KS-13 (Homo sapiens, UniProt P16989); assay: as above; conditions: urea extraction, biotin-labeled KS-13, human cord blood CD34(+) cells
T3 construct: endogenous in cells; host or cells: human cord blood CD34(+) cells

[9] = biological target: T4, proteins that bind to KS-13 (Homo sapiens, UniProt Q9NQ40); assay: as above; conditions: urea extraction, biotin-labeled KS-13, human cord blood CD34(+) cells
T4 construct: endogenous in cells; host or cells: human cord blood CD34(+) cells
T4 sequence (Q9NQ40 1-469): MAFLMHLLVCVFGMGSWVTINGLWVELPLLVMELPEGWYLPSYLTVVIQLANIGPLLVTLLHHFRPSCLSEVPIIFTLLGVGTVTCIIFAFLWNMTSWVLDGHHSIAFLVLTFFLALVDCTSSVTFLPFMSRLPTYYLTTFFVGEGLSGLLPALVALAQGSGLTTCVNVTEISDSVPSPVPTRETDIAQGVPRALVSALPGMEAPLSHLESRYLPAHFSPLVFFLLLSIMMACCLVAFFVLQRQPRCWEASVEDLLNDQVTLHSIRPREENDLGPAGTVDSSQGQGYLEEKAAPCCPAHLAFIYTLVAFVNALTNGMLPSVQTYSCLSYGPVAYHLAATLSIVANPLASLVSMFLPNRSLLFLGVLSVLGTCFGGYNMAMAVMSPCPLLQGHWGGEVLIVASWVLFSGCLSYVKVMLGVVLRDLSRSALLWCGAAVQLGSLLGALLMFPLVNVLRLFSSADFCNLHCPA

[10] = biological target: T5, proteins that bind to KS-13 (Homo sapiens, UniProt Q9NWW0); assay: as above; conditions: glycine extraction, biotin-labeled KS-13, human cord blood CD34(+) cells
T5 construct: endogenous in cells; host or cells: human cord blood CD34(+) cells
T5 sequence (Q9NWW0 1-138): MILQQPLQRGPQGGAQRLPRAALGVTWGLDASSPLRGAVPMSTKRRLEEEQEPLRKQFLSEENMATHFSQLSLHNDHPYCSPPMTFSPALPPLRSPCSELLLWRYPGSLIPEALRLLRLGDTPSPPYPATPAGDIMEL

[11] = biological target: T6, proteins that bind to KS-13 (Homo sapiens, UniProt P08779); assay: as above; conditions: glycine extraction, biotin-labeled KS-13, human cord blood CD34(+) cells
T6 construct: endogenous in cells; host or cells: human cord blood CD34(+) cells

[12] = biological target: T7, proteins that bind to KS-13 (Homo sapiens, UniProt P02533); assay: as above; conditions: glycine extraction, biotin-labeled KS-13, human cord blood CD34(+) cells
T7 construct: endogenous in cells; host or cells: human cord blood CD34(+) cells
T7 sequence (P02533 1-472): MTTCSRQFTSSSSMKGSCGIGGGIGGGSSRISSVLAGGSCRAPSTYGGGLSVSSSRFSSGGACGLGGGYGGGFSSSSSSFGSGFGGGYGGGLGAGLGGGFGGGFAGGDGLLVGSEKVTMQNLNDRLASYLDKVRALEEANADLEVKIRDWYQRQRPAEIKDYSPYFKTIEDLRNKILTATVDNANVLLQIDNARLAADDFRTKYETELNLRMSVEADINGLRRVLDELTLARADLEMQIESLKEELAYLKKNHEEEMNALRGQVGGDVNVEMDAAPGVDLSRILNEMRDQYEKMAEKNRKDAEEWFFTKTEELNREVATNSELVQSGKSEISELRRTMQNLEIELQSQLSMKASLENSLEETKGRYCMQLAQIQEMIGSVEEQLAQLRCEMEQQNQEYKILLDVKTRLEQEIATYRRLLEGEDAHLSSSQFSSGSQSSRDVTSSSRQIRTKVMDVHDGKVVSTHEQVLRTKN

[13] = biological target: T8, proteins that bind to KS-13 (Homo sapiens, UniProt A8MWD9); assay: as above; conditions: glycine extraction, biotin-labeled KS-13, human cord blood CD34(+) cells
T8 construct: endogenous in cells; host or cells: human cord blood CD34(+) cells

Ly-5.1 mice [14] = assay: Transplantation of ES cell-derived cells induced with KS-13, bone marrow reconstruction potential by flow cytometry; format: in vivo, mouse
[15] = tested on: CD324(−)Flk-1 (+)c-Kit(+) cells; assay: Real-time PCR of CD45, Runx-1 and HoxB4 genes in mesodermal cells induced from mouse embryonic stem cells; format: cell-based
[16] = in vitro amplification group (KS-13 30 μg/mL, 4 days)
[17] = KS-13 10 μg/mL, after 11 days liquid culture
[18] = KS-13, after 11 days liquid culture
[19] = about 2,000 cells into bone marrow, 3 to 4 months, mouse No. 1
[20] = about 2,000 cells into bone marrow, 3 to 4 months, mouse No. 2
[21] = about 20,000 cells into tail vein, 2 months, mouse No. 1
[22] = about 20,000 cells into tail vein, 2 months, mouse No. 2

CC[C@H](C)[C@H](NC(=O)[C@@H](NC(=O)[C@H](CS)NC(=O)[C@@H]1CCCN1C(=O)CNC(=O)[C@H](CC(=O)O)NC(=O)[C@H](CCCCN)NC(=O)[C@H](CCCCN)NC(=O)[C@H](CCC(N)=O)NC(=O)[C@@H](N)CS)C(C)C)C(=O)N[C@@H](CC(N)=O)C(=O)NCC(=O)N[C@@H](CO)C(=O)O [KS-13, Cys Gln Lys Lys Asp Gly Pro Cys Val Ile Asn Gly Ser] (H-CQKKDGPCVINGS-OH)
phosphorylation of the phosphorylation site (S15) of p53 (p53): confirmed phosphorylation | chimerism of reconstructed bone marrow compared to the control (Ly-5.1 mice [1]; KS-13 30 μg/mL amplified cells): higher chimerism in all blood cell lines | CD45.2(+)B220(+) (Ly-5.1 mice [1]; [16]): 0.181% | CD45.2(+)Gr-1 (+) (Ly-5.1 mice [1]; [16]): 0.546% | CD45.2(+)Mac-1 (+) (Ly-5.1 mice [1]; [16]): 1.69% | CD45.2(+)Thy1.2(+) (Ly-5.1 mice [1]; [16]): 0.045% | phosphorylation of the phosphorylation site (T308) of Akt (Akt): confirmed phosphorylation | increase in total number of cells from day 0 ([2]; KS-13 1 μg/mL): 27.50 fold | rate of increase in the number of CD34(+) cells (control = 1) ([2]; KS-13 1 μg/mL): 0.84 | rate of increase in the number of CD34(−) cells (control = 1) ([2]; KS-13 1 μg/mL): 0.68 | rate of increase in the total number of cells (control = 1) ([2]; KS-13 1 μg/mL): 0.72 | increase in number of CD34(+) cells from day 0 ([2]; KS-13 1 μg/ml): 7.96 fold | rate of increase in the number of CD34(+) cells (control = 1) ([2]; KS-13 10 μg/m): 0.89 | rate of increase in the number of CD34(−) cells (control = 1) ([2]; KS-13 10 μg/m): 0.73 | increase in total number of cells from day 0 ([2]; KS-13 10 μg/mL): 29.38 fold | rate of increase in the total number of cells (control = 1) ([2]; KS-13 10 μg/mL): 0.77 | increase in number of CD34(+) cells from day 0 ([2]; KS-13 10 μg/ml): 8.38 fold | hematopoietic colony formation ([3]; KS-13 10 μg/mL and 30 μg/mL, 12 days, cell stimulatory factors present): dose-dependent inhibition of hematopoietic colony formation | size of mixed colonies ([3]; KS-13 30 μg/mL, cultured 1 month, versus absence of KS-13): a tendency of increase in the size of mixed colonies was observed | high-proliferative-potential colony-forming cells (HPP-CFC) [4]: observed | amplification of BFU-E compared to the control [5, 17]: approximately 2.5 fold | amplification of CFU-GEMM compared to the control [5, 17]: about 2 fold | amplification of CFU-G [5, 18]: not amplified | amplification of CFU-GM [5, 18]: not amplified | amplification of CFU-M [5, 18]: not amplified | size of individual CFU-F (mouse bone marrow cells; KS-13 50 μg/mL): tended to be small | amplification of mesenchymal stem cells (mouse bone marrow cells; KS-13 50 μg/mL versus KS-13-free): 1.4 fold | number of CFU-F formation (mouse bone marrow cells; KS-13 50 μg/mL, 2×10^7 cells): 48.0 | emPAI value, Tropomyosin beta chain [6]: 0.28 | emPAI value, Protein transport protein Sec61 subunit beta [7]: 0.47 | emPAI value, D NA-binding protein A [8]: 0.27 | emPAI value, Uncharacterized protein C20orf54 [9]: 0.58 | emPAI value, Host cell factor C1 regulator 1 [10]: 0.39 | emPAI value, Keratin, type I cytoskeletal 16 [11]: 0.39 | emPAI value, Keratin, type I cytoskeletal 14 [12]: 0.28 | emPAI value, Small nuclear ribonucleoprotein G-like protein [13]: 0.58 | CD45.2(+)B220(+) (Ly-5.1 mice [14]; [19]): 0.130% | CD45.2(+)Gr-1 (+) (Ly-5.1 mice [14]; [19]): 0.361% | CD45.2(+)Mac-1 (+) (Ly-5.1 mice [14]; [19]): 0.421% | CD45.2(+)Thy1.2(+) (Ly-5.1 mice [14]; [19]): 0.090% | CD45.2(+)B220(+) (Ly-5.1 mice [14]; [20]): 0.183% | CD45.2(+)Gr-1 (+) (Ly-5.1 mice [14]; [20]): 0.248% | CD45.2(+)Mac-1 (+) (Ly-5.1 mice [14]; [20]): 0.347% | CD45.2(+)Thy1.2(+) (Ly-5.1 mice [14]; [20]): 0.109% | CD45.2(+)B220(+) (Ly-5.1 mice [14]; [21]): 0.077% | CD45.2(+)Gr-1 (+) (Ly-5.1 mice [14]; [21]): 0.356% | CD45.2(+)Mac-1 (+) (Ly-5.1 mice [14]; [21]): 0.925% | CD45.2(+)Thy1.2(+) (Ly-5.1 mice [14]; [21]): 0.006% | CD45.2(+)B220(+) (Ly-5.1 mice [14]; [22]): 0.132% | CD45.2(+)Gr-1 (+) (Ly-5.1 mice [14]; [22]): 0.548% | CD45.2(+)Mac-1 (+) (Ly-5.1 mice [14]; [22]): 1.90% | CD45.2(+)Thy1.2(+) (Ly-5.1 mice [14]; [22]): 0.020% | day of culturing at which expression of HoxB4 gene reached its peak ([15]; SCF/KS-13 co-culture): 4 days | day of culturing at which expression of Runx-1 reached its peak ([15]; SCF/KS-13 co-culture): 3 days | CD45 gene expression ([15]; SCF/KS-13 co-culture (50 ng/ml SCF, 100 μg/ml KS-13), day 4 of culturing): observed | CD45 gene expression ([15]; SCF/KS-13 co-culture, day 5 of culturing): not observed
